In PMC7483518, “Destabilizing single chain major histocompatibility complex class I protein for repurposed enterokinase proteolysis” (Scientific Reports, 2020):
Read-outs that look alike come from different tables or passages of the source.

System: HLA-A*11:01 single chain protein
Type: biochemical, Human
Set-up: EZ50kDa rank out of 177: unit not given beside the values
Conditions: for EZ50kDa rank out of 177: Table 3, rank among 177 EGFR peptides
[1] = rank of the peptide by EZ50kD score in the library (1 = highest)
[2] = rank of the peptide in the library by EZ50kD score

Row | Sequence | EZ50kDa rank out of 177 | EZ_Ranking [1] | EZ_Ranking [2]
1 | AIKTSPKANK [EX1012, EGFR exon 19 deletion-derived peptide] | 20 | 20 | 
2 | GRAKLLGA [LR1007] |  |  | 100
3 | GRAKLLGAEE [LR1026] |  | 60 | 
4 | GSLLDYVREHK [CS1037] | 5 | 5 | 
5 | IKTSPKANKE [EX1013] |  | 50 | 
6 | IMQLMPFGCL [TM1026] |  |  | 90
7 | KITDFGRAKLLG [LR1044] | 7 | 7 | 
8 | KTSPKANKE [EX1008] |  | 30 | 
9 | LMPFGSLLDY [CS1022] | 80 | 80 | 
10 | MQLMPFGCLLDY [TM1050] | 8 | 8 | 
11 | QLMPFGSLLDY [CS1032] | 1 | 1 | 
12 | RAKLLGAE [LR1008] |  | 70 | 
13 | SLLDYVREH [CS1017] | 4 | 4 | 
14 | SLLDYVREHK [CS1027] | 3 | 3 | 
15 | TSPKANKEI [EX1009] |  | 40 | 
16 | VAIKTSPKANK [EX1018, EGFR exon 19 deletion-derived peptide] | 6 | 6 | 
